Measurements as given in US10793885B2, “Compositions and methods for making noscapine and synthesis intermediates thereof” (priority 2013, dated 2020).

Molecular target: T1, NOS (Papaver somniferum, UniProt I3PLR3)
T1 construct: His-tag (pRSETA leader) (N); made in house; host or cells: Escherichia coli Rosetta (DE3) pLysS
T1 sequence (I3PLR3 1-348): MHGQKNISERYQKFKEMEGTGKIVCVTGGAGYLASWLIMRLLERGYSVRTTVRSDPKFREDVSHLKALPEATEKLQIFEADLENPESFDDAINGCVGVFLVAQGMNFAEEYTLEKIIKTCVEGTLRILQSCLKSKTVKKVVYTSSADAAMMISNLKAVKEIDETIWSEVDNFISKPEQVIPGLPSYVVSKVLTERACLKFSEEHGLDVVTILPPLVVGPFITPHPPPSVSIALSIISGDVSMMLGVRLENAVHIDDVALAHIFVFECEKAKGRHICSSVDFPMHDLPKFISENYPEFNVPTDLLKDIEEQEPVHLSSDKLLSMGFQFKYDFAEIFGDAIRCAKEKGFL
Type: biochemical, opium poppy (Papaver somniferum)
Conditions: recombinant NOS, product detection by LC-MS/MS
Description: The full-length cDNA sequence of CL1327Contig1 (see: Example 2) was cloned into vector pRSETA in-frame with an N-terminal His-tag and expressed in E. coli as follows. The NOS coding region was amplified from opium poppy stem cDNA using the following primer set: 5′-[…]-3′ (SEQ ID NO: 601) and 5′-[…]-3′ (SEQ ID NO: 602). The NOS cDNA was cloned into the expression vector pRSETA (Invitrogen) at the SacI and KpnI restriction sites in frame with an N-terminal His-tag sequence. The expression construct was transformed into Escherichia coli strain Rosetta (DE3) pLysS (EMD Chemicals, Darmstadt, Germany). Expression of the recombinant gene was induced overnight with 1 mM isopropyl β-D-thiogalactoside (IPTG) at room temperature. Cells were harvested by centrifugation and sonicated in a buffer containing 50 mM sodium phosphate, pH 7.0, 300 mM NaCl, and 10 mM β-mercaptoethanol. […] Protein concentration was determined by the Bradford assay (Bio-Rad, Hercules, Calif.) using bovine serum albumin as the standard.
The purified recombinant NOS enzyme (see: Example 4) was assayed using either narcotine hemiacetal as the substrate (in the presence of either NAD^+ or NADP^+ as cofactor) for dehydrogenase activity, or with noscapine as the substrate (in the presence of NADH or NADPH as the cofactor) for reductase activity. LC-MS/MS was used to identify and quantify product formation (FIG. 7). […]

For `CN1CC[C@]23c4c5ccc(O)c4O[C@H]2[C@@H](O)C=C[C@H]3[C@H]1C5` [Morphine], the “acceptance as substrate / conversion by NOS” value was “none were accepted by NOS”.
